Source: US20030211979A1 (Boehringer Ingelheim Pharma GmbH & Co. KG, priority 2002, published 2003)

Assay: general procedure: hybrid (solid and solution phase) peptide synthesis; H-Gly-2-chlorotrityl-resin; TBTU/HOBt/diisopropylethylamine; HATU/diisopropylethylamine

Substance	step yield (late stage modification step) [%]	final HPLC purity (late stage modification step)	conjugation yield (conjugation step) [%]	final HPLC purity (conjugation step)	final HPLC purity (coupling step)
4-Carboxymethylphenylacetyl-Pro-Ala-Gly-Pro-MNA	48	HPLC>95%			
Aloc-Pro-Ala-Gly-Pro-Dox			81	HPLC>95%	
H-Pro-Ala-Gly-Pro-Dox	95	HPLC>95%			
H-Pro-Ala-Gly-Pro-MNA					HPLC>95%
[2-(4-Carboxymethyl-phenyl)-acetyl]-Pro-Ala-Gly-Pro-Dox	64	HPLC>95%			

The same purity stands for every peptide and may come from a single statement.
